# Laboratory results taken from PubChem BioAssay AID256 (DTP/NCI, 2004).
# The list does not hold the whole screen: it is rich in T/C values a quarter to a half above the control, in often repeated tests (any T/C) and in doses without a T/C. Other doses and runs of a compound stand elsewhere. T/C is the treated group as % of the vehicle group. Some doses have a count of surviving animals in place of a T/C: the source holds a T/C of zero for them, seemingly a mark for toxic or unscored doses. Some survivor counts are full or nearly so, which does not show that the dose was tolerated: the source hardly ever lists a survival T/C far under the control, and the zero likely stands for such cases as well. Counts of survivors are from the toxicity check (mostly the fifth day) where no day follows; animals may have died later. Schedule codes are those of the source, read here as Q, the interval in days (D) or hours (H), X, the number of doses. For survival time, the PubChem record calls one and a half times the control and up active, and a quarter to a half above the control has no call in these data; cut-offs in other NCI protocols can differ. Some entries hold several experiments; their values stand side by side, smallest first. Some T/C values carry the count of animals alive at the toxicity check (mostly the fifth day); without a count, all were alive then.
# Tested on: CD2F1 mice, L1210 leukemia ip, survival T/C
# Assay: NCI In Vivo Anticancer Drug Screen. Data for tumor model L1210 Leukemia (intraperitoneal) in CD2F1 (CDF1) mice
# Details: T/C endpoint: mean survival time, higher T/C = longer survival
# Procedure, shortened: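 In this screen, transplantable tumors were grown in mice given either the compound or its vehicle. Results were expressed as the treated measurement relative to the control measurement.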
smiles,measurement,setting,value
Nc1nc(=S)c2ncn(C3CC(O)C(CO)O3)c2[nH]1 (configuration not stated),T/C,"dose: 0.62 mg/kg/injection, schedule: Q01DX005 (ip), vehicle: saline",145 % of control
same,T/C,"dose: 0.62 mg/kg/injection, schedule: Q01DX009 (ip), vehicle: water",135 % of control
same,T/C,"dose: 0.62 mg/kg/injection, schedule: Q03HX008 (ip), vehicle: saline",139 % of control
same,T/C,"dose: 0.63 mg/kg/injection, schedule: Q01DX005 (ip), vehicle: saline with Tween-80",132 % of control
same,T/C,"dose: 1.25 mg/kg/injection, schedule: Q01DX005 (ip), vehicle: saline with Tween-80",140 % of control
same,T/C,"dose: 1.25 mg/kg/injection, schedule: Q01DX009 (ip), vehicle: water",145 % of control
same,T/C,"dose: 1.25 mg/kg/injection, schedule: Q03HX008 (ip), vehicle: saline",148 % of control
same,T/C,"dose: 2.5 mg/kg/injection, schedule: Q01DX005 (ip), vehicle: saline with Tween-80",147 % of control
same,T/C,"dose: 2.5 mg/kg/injection, schedule: Q01DX005 (ip), vehicle: saline",146 % of control
same,T/C,"dose: 2.5 mg/kg/injection, schedule: Q01DX005 (oral), vehicle: saline",149 % of control
same,T/C,"dose: 2.5 mg/kg/injection, schedule: Q01DX009 (ip), vehicle: water",137 % of control
same,T/C,"dose: 2.5 mg/kg/injection, schedule: Q03HX008 (ip), vehicle: saline",144 % of control
same,T/C,"dose: 4.0 mg/kg/injection, schedule: Q01DX005 (ip), vehicle: saline",127 % of control
same,T/C,"dose: 4.0 mg/kg/injection, schedule: Q01DX009 (ip), vehicle: saline",132 % of control
same,T/C,"dose: 5.0 mg/kg/injection, schedule: Q01DX001 (ip), vehicle: steroid suspending solution",129 % of control
same,T/C,"dose: 5.0 mg/kg/injection, schedule: Q01DX005 (ip), vehicle: saline",147 % of control
same,T/C,"dose: 5.0 mg/kg/injection, schedule: Q01DX009 (ip), vehicle: water",140 % of control
same,T/C,"dose: 5.0 mg/kg/injection, schedule: Q03HX008 (ip), vehicle: saline",146 % of control
same,T/C,"dose: 8.0 mg/kg/injection, schedule: Q01DX005 (ip), vehicle: saline",132 % of control
same,T/C,"dose: 10.0 mg/kg/injection, schedule: Q01DX001 (ip), vehicle: steroid suspending solution",134 % of control
same,T/C,"dose: 10.0 mg/kg/injection, schedule: Q01DX009 (ip), vehicle: water",127 % of control
same,T/C,"dose: 10.0 mg/kg/injection, schedule: Q03HX008 (ip), vehicle: saline",146 % of control
same,T/C,"dose: 10.0 mg/kg/injection, schedule: Q03HX024 (ip), vehicle: saline",133 % of control
same,T/C,"dose: 10.0 mg/kg/injection, schedule: Q04DX003 (ip), vehicle: saline",137 % of control
same,T/C,"dose: 10.0 mg/kg/injection, schedule: Q04DX003 (ip), vehicle: water",140 % of control
same,T/C,"dose: 12.0 mg/kg/injection, schedule: Q01DX009 (oral), vehicle: saline",126 % of control
same,T/C,"dose: 20.0 mg/kg/injection, schedule: Q01DX001 (ip), vehicle: saline",129 % of control
same,T/C,"dose: 20.0 mg/kg/injection, schedule: Q01DX001 (ip), vehicle: steroid suspending solution",139 % of control
same,survivor count,"dose: 20.0 mg/kg/injection, schedule: Q01DX005 (ip), vehicle: saline with Tween-80",7 of 7
same,T/C,"dose: 20.0 mg/kg/injection, schedule: Q01DX005 (ip), vehicle: saline",144 % of control
same,T/C,"dose: 20.0 mg/kg/injection, schedule: Q03HX008 (ip), vehicle: saline",143 % of control
same,T/C,"dose: 20.0 mg/kg/injection, schedule: Q03HX016 (ip), vehicle: saline",141 % of control
same,T/C,"dose: 20.0 mg/kg/injection, schedule: Q04DX003 (ip), vehicle: water",144 % of control
same,T/C,"dose: 20.0 mg/kg/injection, schedule: Q08DX002 (ip), vehicle: saline",132 % of control
same,T/C,"dose: 24.0 mg/kg/injection, schedule: Q01DX009 (oral), vehicle: saline",142 % of control
same,T/C,"dose: 36.0 mg/kg/injection, schedule: Q01DX009 (ip), vehicle: water",130 % of control
same,T/C,"dose: 40.0 mg/kg/injection, schedule: Q01DX001 (ip), vehicle: saline",132 and 147 % of control
same,T/C,"dose: 40.0 mg/kg/injection, schedule: Q01DX001 (sc), vehicle: saline",128 % of control
same,survivor count,"dose: 40.0 mg/kg/injection, schedule: Q01DX005 (ip), vehicle: saline with Tween-80",7 of 7
same,T/C,"dose: 40.0 mg/kg/injection, schedule: Q01DX005 (oral), vehicle: saline",142 % of control
same,T/C,"dose: 40.0 mg/kg/injection, schedule: Q04DX003 (ip), vehicle: water",140 % of control
same,T/C,"dose: 40.0 mg/kg/injection, schedule: Q08DX002 (ip), vehicle: saline",129 % of control
same,T/C,"dose: 48.0 mg/kg/injection, schedule: Q01DX009 (oral), vehicle: saline",137 % of control
same,T/C,"dose: 50.0 mg/kg/injection, schedule: Q01DX009 (ip), vehicle: water",141 % of control
same,T/C,"dose: 60.0 mg/kg/injection, schedule: Q01DX001 (oral), vehicle: saline",144 % of control
same,T/C,"dose: 64.0 mg/kg/injection, schedule: Q01DX005 (ip), vehicle: saline",147 % of control
same,T/C,"dose: 64.0 mg/kg/injection, schedule: Q01DX009 (sc), vehicle: saline",145 % of control
same,T/C,"dose: 76.0 mg/kg/injection, schedule: Q01DX009 (ip), vehicle: water",140 % of control
same,T/C,"dose: 80.0 mg/kg/injection, schedule: Q01DX001 (ip), vehicle: saline",141 % of control
same,T/C,"dose: 80.0 mg/kg/injection, schedule: Q01DX001 (oral), vehicle: saline",144 % of control
same,T/C,"dose: 80.0 mg/kg/injection, schedule: Q01DX001 (sc), vehicle: saline",145 % of control
same,T/C,"dose: 80.0 mg/kg/injection, schedule: Q08DX002 (ip), vehicle: saline",134 % of control
same,T/C,"dose: 116.0 mg/kg/injection, schedule: Q01DX009 (ip), vehicle: water",126 % of control
same,T/C,"dose: 116.0 mg/kg/injection, schedule: Q04DX003 (ip), vehicle: water",140 % of control
same,T/C,"dose: 120.0 mg/kg/injection, schedule: Q01DX001 (oral), vehicle: saline",148 % of control
same,T/C,"dose: 128.0 mg/kg/injection, schedule: Q01DX005 (ip), vehicle: saline",126 % of control
same,T/C,"dose: 128.0 mg/kg/injection, schedule: Q01DX009 (ip), vehicle: saline",126 % of control
same,T/C,"dose: 150.0 mg/kg/injection, schedule: Q04DX003 (ip), vehicle: clinical formulation",127 % of control
same,T/C,"dose: 160.0 mg/kg/injection, schedule: Q01DX001 (ip), vehicle: saline",146 and 147 % of control
same,T/C,"dose: 160.0 mg/kg/injection, schedule: Q01DX001 (oral), vehicle: saline",144 % of control
same,T/C,"dose: 160.0 mg/kg/injection, schedule: Q01DX001 (sc), vehicle: saline",138 % of control
same,T/C,"dose: 160.0 mg/kg/injection, schedule: Q04DX003 (ip), vehicle: suspension in saline",136 % of control
same,T/C,"dose: 160.0 mg/kg/injection, schedule: Q04DX003 (iv), vehicle: suspension in saline",137 % of control
same,T/C,"dose: 176.0 mg/kg/injection, schedule: Q01DX009 (ip), vehicle: water",137 and 147 % of control
same,T/C,"dose: 176.0 mg/kg/injection, schedule: Q04DX003 (ip), vehicle: water",140 % of control
same,T/C,"dose: 266.0 mg/kg/injection, schedule: Q04DX003 (ip), vehicle: water",145 % of control
same,T/C,"dose: 300.0 mg/kg/injection, schedule: Q04DX003 (ip), vehicle: clinical formulation",136 % of control
same,T/C,"dose: 320.0 mg/kg/injection, schedule: Q01DX001 (ip), vehicle: saline",137 and 142 % of control
same,T/C,"dose: 320.0 mg/kg/injection, schedule: Q01DX001 (sc), vehicle: saline",145 % of control
same,survivor count,"dose: 320.0 mg/kg/injection, schedule: Q04DX003 (iv), vehicle: suspension in saline",5 of 6
same,survivor count,"dose: 400.0 mg/kg/injection, schedule: Q01DX005 (ip), vehicle: water",6 of 6
same,T/C,"dose: 400.0 mg/kg/injection, schedule: Q01DX009 (ip), vehicle: water",140 % of control
same,T/C,"dose: 400.0 mg/kg/injection, schedule: Q04DX003 (ip), vehicle: water",133 and 143 % of control
same,T/C,"dose: 480.0 mg/kg/injection, schedule: Q01DX001 (oral), vehicle: saline",135 % of control [9 of 10 alive]
same,T/C,"dose: 600.0 mg/kg/injection, schedule: Q04DX003 (ip), vehicle: water",147 % of control
same,T/C,"dose: 640.0 mg/kg/injection, schedule: Q01DX001 (oral), vehicle: saline",138 % of control
same,T/C,"dose: 960.0 mg/kg/injection, schedule: Q01DX001 (oral), vehicle: saline",147 % of control
